Test results reported in patent US11135177B2, “Methods of making and using compositions comprising flavonoids” (VIZURI HEALTH SCIENCES CONSUMER HEALTHCARE, INC., priority 2009, dated 2021).
For at least one compound, name, drawing or mass did not settle the structure.

Test: Solubility in polysorbate 80 and other nonionic surfactants via the high temperature processing method
Details: heating in PS80, process 1

For `COc1ccc([C@@H]2CC(=O)c3c(O)cc(O[C@@H]4O[C@H](CO[C@@H]5O[C@@H](C)[C@H](O)[C@@H](O)[C@H]5O)[C@@H](O)[C@H](O)[C@H]4O)cc3O2)cc1O` [HESPERIDIN], the “decomposition in the standard solubilization method” value was “Decomposition of hesperidin”.
